Test system: Mus musculus
Assay: Compound was tested for analgesia in mouse writhing assay by subcutaneous administration
Assay type: functional
Conditions: sc

CN1CC[C@]23c4c5ccc(O)c4O[C@H]2[C@@H](O)C=C[C@H]3[C@H]1C5 [MORPHINE]
ED50: 2.1 µmol/kg
